The assay deals with GP2a-mCherry (PRRSV-2 strain CH-1a). The assay is described as follows: co-IP; GP2a with autophagy receptors (SQSTM1/p62, NDP52, TOLLIP, NBR1, OPTN); cells, tags and precipitating antibody not told.

Results are given in words; binding and its absence hold for the method and conditions named. Binding seen in cells or lysates may run through a third protein. Binding calls can cover weak binding; strength is not graded here.

B1: NDP52 (protein, UniProt Q13137 1-446)
chain: MEETIKDPPTSAVLLDHCHFSQVIFNSVEKFYIPGGDVTCHYTFTQHFIPRRKDWIGIFRVGWKTTREYYTFMWVTLPIDLNNKSAKQQEVQFKAYYLPKDDEYYQFCYVDEDGVVRGASIPFQFRPENEEDILVVTTQGEVEEIEQHNKELCKENQELKDSCISLQKQNSDMQAELQKKQEELETLQSINKKLELKVKEQKDYWETELLQLKEQNQKMSSENEKMGIRVDQLQAQLSTQEKEMEKLVQGDQDKTEQLEQLKKENDHLFLSLTEQRKDQKKLEQTVEQMKQNETTAMKKQQELMDENFDLSKRLSENEIICNALQRQKERLEGENDLLKRENSRLLSYMGLDFNSLPYQVPTSDEGGARQNPGLAYGNPYSGIQESSSPSPLSIKKCPICKADDICDHTLEQQQMQPLCFNCPICDKIFPATEKQIFEDHVFCHSL
Regarding B1, the binding entry was “binds weakly”.
